Publication doi:10.1101/2025.10.10.681672
These are yes or no findings as the source states them, for the method shown. Binding seen in cells or lysates may run through a third protein. Some binding calls cover weakened binding; strength is not graded here. Sequences can lack the tags named with a protein.

Sequences of proteins named here, by UniProt entry; tags and fusion partners are left off.
UniProt P18431: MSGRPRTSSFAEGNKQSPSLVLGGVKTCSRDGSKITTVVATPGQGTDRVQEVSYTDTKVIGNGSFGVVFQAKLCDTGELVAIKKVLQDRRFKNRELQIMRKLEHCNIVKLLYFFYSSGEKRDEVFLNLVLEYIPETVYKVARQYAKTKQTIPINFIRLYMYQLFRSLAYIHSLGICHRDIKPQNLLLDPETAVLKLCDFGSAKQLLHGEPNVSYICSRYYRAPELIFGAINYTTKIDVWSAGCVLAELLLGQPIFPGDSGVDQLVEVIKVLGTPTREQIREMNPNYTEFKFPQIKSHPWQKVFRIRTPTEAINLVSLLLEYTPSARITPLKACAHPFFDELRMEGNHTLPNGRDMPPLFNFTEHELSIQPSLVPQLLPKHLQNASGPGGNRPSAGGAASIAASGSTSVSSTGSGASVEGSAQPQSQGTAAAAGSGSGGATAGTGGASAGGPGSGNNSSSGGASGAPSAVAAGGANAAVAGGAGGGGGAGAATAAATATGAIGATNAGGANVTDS

Target: T1, GFP-Hnf4[178–493] (Drosophila melanogaster) (UniProt P49866)
T1 sequence: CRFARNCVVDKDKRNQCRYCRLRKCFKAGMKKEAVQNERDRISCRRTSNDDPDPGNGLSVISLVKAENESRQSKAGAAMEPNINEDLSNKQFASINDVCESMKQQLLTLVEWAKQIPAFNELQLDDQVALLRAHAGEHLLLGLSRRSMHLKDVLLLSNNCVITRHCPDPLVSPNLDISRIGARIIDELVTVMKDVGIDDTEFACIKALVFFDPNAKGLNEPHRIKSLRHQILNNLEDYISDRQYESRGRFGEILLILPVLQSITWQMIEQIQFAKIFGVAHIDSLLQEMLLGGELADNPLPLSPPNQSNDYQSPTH
Experiment: co-IP; S2R+ cells co-transfected; CHAPS lysis buffer; GFP-tagged protein immunoprecipitated with anti-GFP nanobody on ALFA-tag magnetic resin overnight at 4°C; western blot

binding: binds
Substance: Sgg-3xHA (from UniProt P18431 1-514) (enzyme)
